According to PMC4865133:
Results are given in words; binding and its absence hold for the method and conditions named. In cells and extracts the contact can be indirect. Some results given as binding are weak or reduced against the parent protein; the word gives no strength. Tags and fused reporters may be left off the sequences shown. Each block holds one binder with its values, some of them ahead of it.

How the values were obtained:
MORC6-Flag (Arabidopsis) = target: T1, MORC6-Flag (Arabidopsis) (UniProt Q56Y74); test: co-IP; lysate of 2-week-old seedlings of F1 hybrids of transgenic Arabidopsis; Anti-Flag M2 Affinity Gel, 4°C, 2.5 h; eluted with 3xFlag peptide; western blot
T1 sequence: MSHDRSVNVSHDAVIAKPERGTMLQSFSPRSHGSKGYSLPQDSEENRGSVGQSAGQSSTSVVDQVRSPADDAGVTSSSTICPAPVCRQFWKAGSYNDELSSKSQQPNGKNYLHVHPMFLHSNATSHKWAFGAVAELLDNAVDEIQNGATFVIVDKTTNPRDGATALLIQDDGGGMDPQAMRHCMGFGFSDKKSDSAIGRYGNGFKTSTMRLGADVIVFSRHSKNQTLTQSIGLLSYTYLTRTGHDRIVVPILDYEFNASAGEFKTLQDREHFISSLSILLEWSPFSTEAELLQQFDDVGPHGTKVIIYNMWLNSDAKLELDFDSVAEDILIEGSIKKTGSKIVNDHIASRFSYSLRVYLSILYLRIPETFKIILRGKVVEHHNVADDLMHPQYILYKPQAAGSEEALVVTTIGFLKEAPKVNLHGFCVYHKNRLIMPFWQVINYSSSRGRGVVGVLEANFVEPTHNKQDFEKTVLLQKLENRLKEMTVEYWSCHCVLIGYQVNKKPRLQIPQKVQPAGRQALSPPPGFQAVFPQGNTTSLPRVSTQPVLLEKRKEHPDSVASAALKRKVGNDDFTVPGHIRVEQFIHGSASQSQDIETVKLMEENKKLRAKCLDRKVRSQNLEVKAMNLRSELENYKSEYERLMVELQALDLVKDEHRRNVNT

SWI3D-Flag (Arabidopsis) = target: T2, SWI3D-Flag (Arabidopsis) (UniProt Q8VY05); test: as above
T2 sequence: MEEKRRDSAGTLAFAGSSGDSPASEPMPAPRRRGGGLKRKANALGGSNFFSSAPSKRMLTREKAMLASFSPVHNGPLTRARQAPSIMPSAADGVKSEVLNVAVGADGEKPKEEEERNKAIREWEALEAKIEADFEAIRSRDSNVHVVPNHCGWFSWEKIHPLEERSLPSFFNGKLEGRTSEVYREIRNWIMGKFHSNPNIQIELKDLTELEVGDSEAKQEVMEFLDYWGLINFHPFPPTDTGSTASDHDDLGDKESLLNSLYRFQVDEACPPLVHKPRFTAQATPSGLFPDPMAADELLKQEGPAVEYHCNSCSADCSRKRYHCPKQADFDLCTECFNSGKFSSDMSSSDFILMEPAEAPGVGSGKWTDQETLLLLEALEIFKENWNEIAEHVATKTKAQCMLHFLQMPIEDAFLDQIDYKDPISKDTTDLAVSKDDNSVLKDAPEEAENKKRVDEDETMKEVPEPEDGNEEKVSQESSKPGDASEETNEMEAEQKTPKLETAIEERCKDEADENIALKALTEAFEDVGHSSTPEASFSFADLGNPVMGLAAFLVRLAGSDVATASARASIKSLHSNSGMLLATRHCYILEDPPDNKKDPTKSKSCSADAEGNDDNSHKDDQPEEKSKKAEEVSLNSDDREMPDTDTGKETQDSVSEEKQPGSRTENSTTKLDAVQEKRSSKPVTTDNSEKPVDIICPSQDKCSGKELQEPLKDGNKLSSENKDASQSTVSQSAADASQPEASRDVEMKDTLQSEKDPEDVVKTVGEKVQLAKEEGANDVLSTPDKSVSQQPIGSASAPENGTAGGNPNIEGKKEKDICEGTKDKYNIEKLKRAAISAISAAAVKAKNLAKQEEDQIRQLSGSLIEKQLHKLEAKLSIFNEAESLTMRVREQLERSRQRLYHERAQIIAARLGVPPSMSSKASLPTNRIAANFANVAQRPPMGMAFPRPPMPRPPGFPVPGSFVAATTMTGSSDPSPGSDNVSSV

binding (MORC6-Flag (Arabidopsis)): binds
B1: IDN2-Myc (protein, UniProt Q8VZ79 1-647)
chain: MGSTVILSSDDEDSDISESEMDEYGDKMYLNLKGGKLKVRLSPQAFICPYCPNKKKTSFQYKDLLQHASGVGNSNSDKRSAKEKASHLALVKYLQQDLADSASEAEPSSKRQKNGNPIQDCDHDEKLVYPWKGIVVNIPTTKAQDGRSAGESGSKLRDEYILRGFNPTRVRPLWNYLGHSGTAIVEFNKDWNGLHNGLLFDKAYTVDGHGKKDWLKKDGPKLGLYGWIARADDYNGNNIIGENLRKTGDLKTIAELTEEEARKQELLVQNLRQLVEEKKKDMKEIEELCSVKSEELNQLMEEKEKNQQKHYRELNAIQERTMSHIQKIVDDHEKLKRLLESERKKLEIKCNELAKREVHNGTERMKLSEDLEQNASKNSSLELAAMEQQKADEEVKKLAEDQRRQKEELHEKIIRLERQRDQKQAIELEVEQLKGQLNVMKHMASDGDAEVVKEVDIIFKDLGEKEAQLADLDKFNQTLILRERRTNDELQEAHKELVNIMKEWNTNIGVKRMGELVTKPFVDAMQQKYCQQDVEDRAVEVLQLWEHYLKDSDWHPFKRVKLENEDREVEVIDDRDEKLRELKADLGDGPYNAVTKALLEINEYNPSGRYITTELWNFKADKKATLEEGVTCLLDQWEKAKRKRGMA

binding (SWI3D-Flag (Arabidopsis)): binds
B2: MORC6-Myc (protein, UniProt Q56Y74 1-663)
chain: T1 sequence
